These are yes or no findings as the source states them, for the method shown. Binding seen in cells or lysates may run through a third protein. Some entries that bind do so weakly or less than the wild type. For part of these data: Where a sequence is shown, tags or fusion partners need not be part of it.
B1: Thousand And One Amino Acid Kinase 1 (TAOK1), endogenous in KB1P-G3 NT cells (protein, UniProt Q5F2E8 1-1001)
chain: MPSTNRAGSLKDPEIAELFFKEDPEKLFTDLREIGHGSFGAVYFARDVRTNEVVAIKKMSYSGKQSTEKWQDIIKEVKFLQRIKHPNSIEYKGCYLREHTAWLVMEYCLGSASDLLEVHKKPLQEVEIAAITHGALQGLAYLHSHTMIHRDIKAGNILLTEPGQVKLADFGSASMASPANSFVGTPYWMAPEVILAMDEGQYDGKVDVWSLGITCIELAERKPPLFNMNAMSALYHIAQNESPTLQSNEWSDYFRNFVDSCLQKIPQDRPTSEELLKHMFVLRERPETVLIDLIQRTKDAVRELDNLQYRKMKKLLFQEAHNGPAVEAQEEEEEQDHGVGRTGTVNSVGSNQSIPSMSISASSQSSSVNSLPDASDDKSELDMMEGDHTVMSNSSVIHLKPEEENYQEEGDPRTRASDPQSPPQVSRHKSHYRNREHFATIRTASLVTRQMQEHEQDSELREQMSGYKRMRRQHQKQLMTLENKLKAEMDEHRLRLDKDLETQRNNFAAEMEKLIKKHQAAMEKEAKVMANEEKKFQQHIQAQQKKELNSFLESQKREYKLRKEQLKEELNENQSTPKKEKQEWLSKQKENIQHFQAEEEANLLRRQRQYLELECRRFKRRMLLGRHNLEQDLVREELNKRQTQKDLEHAMLLRQHESMQELEFRHLNTIQKMRCELIRLQHQTELTNQLEYNKRRERELRRKHVMEVRQQPKSLKSKELQIKKQFQDTCKIQTRQYKALRNHLLETTPKSEHKAVLKRLKEEQTRKLAILAEQYDHSINEMLSTQALRLDEAQEAECQVLKMQLQQELELLNAYQSKIKMQAEAQHDRELRELEQRVSLRRALLEQKIEEEMLALQNERTERIRSLLERQAREIEAFDSESMRLGFSNMVLSNLSPEAFSHSYPGASSWSHNPTGGPGPHWGHPMGGTPQAWGHPMQGGPQPWGHPSGPMQGVPRGSSMGVRNSPQALRRTASGGRTEQGMSRSTSVTSQISNGSHMSYT
B2: HA-tagged TAOK1 (pOZ-Taok1 rescue construct) (protein, UniProt Q5F2E8 1-1001)
chain: B1 chain

By UniProt entry, the sequences of proteins in these tests, tags left out.
UniProt P17918: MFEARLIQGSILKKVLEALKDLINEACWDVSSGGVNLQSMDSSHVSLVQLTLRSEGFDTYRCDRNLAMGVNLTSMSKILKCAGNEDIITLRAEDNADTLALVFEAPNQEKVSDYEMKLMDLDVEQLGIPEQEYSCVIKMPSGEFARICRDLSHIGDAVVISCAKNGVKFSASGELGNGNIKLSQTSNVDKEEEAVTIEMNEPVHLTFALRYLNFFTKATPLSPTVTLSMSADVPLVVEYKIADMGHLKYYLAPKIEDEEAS
UniProt Q61510: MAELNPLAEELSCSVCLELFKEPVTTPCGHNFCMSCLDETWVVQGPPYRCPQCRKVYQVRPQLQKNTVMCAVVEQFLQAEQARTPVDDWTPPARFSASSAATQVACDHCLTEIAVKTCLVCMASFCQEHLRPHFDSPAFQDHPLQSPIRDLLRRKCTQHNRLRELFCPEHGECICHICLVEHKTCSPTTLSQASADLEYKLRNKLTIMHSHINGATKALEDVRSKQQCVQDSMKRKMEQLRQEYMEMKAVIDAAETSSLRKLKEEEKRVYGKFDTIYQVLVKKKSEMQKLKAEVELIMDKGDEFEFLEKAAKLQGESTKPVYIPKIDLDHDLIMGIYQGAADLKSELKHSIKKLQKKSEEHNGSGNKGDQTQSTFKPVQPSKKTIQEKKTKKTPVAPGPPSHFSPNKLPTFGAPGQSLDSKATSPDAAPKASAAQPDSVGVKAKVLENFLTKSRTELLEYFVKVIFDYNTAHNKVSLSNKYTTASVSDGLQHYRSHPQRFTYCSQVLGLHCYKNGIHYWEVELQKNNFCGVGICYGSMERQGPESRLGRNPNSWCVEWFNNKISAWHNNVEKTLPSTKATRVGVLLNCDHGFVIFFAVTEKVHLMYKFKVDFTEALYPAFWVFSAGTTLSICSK

Columns and labels:
[1] = target: PCNA (mouse (endogenous in KB1P-G3)) (UniProt P17918); test: co-IP
[2] = target: TRIM25 (mouse (endogenous in KB1P-G3)) (UniProt Q61510); test: proximity ligation
[3] = target: TRIM25 (mouse (endogenous in KB1P-G3)) (UniProt Q61510); test: co-IP

Row | Binder | binding [1] | binding [2] | binding [3]
1 | B1 | binds | – | –
2 | B2 | – | binds | binds

— article doi:10.1101/2025.10.14.682031
